Results are given in words; binding and its absence hold for the method and conditions named. Some entries that bind do so weakly or less than the wild type. Blank lines part the entries; values can stand above or below the binder they belong to.
Key:
[1] = molecular target: NocNΔ10, N-terminally truncated Noc variant lacking the first 10 amino acids (Bacillus subtilis) (UniProt P37524); assay: SEC; size-exclusion chromatography of the purified protein in solution (Supplementary Fig S3); conditions not shown; both purified
[2] = molecular target: Nucleoid occlusion protein Noc (Bacillus subtilis), full-length (Bacillus subtilis) (UniProt P37524); assay: as above

binding [1]: binds
B1: NocNΔ10, N-terminally truncated Noc variant lacking the first 10 amino acids (domain or fragment, UniProt P37524 11-283)
chain: LGEKEQEPEIAEHDTNKEEILEIPVNAIVPNRFQPRTIFSDEKIKELAMTIHTHGIIQPIVVRHTEEEGQYELIAGERRWRAVQSLEWEKIPAIIKDFSDTETASVALIENLQREELSSIEEAHAYARLLELHDLTQEALAQRLGKGQSTIANKLRLLKLPQPVQEAIMEKKITERHARALIPLKQPELQVTLLTEIIEKSLNVKQTEDRVVKMLEQGQRKPKPRRKAFSRDTRIAMNTIRQSLSMVEDSGVKLNTEEEEFEEYIQLTIRIPK

binding [2]: binds
B2: Nucleoid occlusion protein Noc (Bacillus subtilis), full-length (protein, UniProt P37524 1-283)
chain: MKHSFSRFFGLGEKEQEPEIAEHDTNKEEILEIPVNAIVPNRFQPRTIFSDEKIKELAMTIHTHGIIQPIVVRHTEEEGQYELIAGERRWRAVQSLEWEKIPAIIKDFSDTETASVALIENLQREELSSIEEAHAYARLLELHDLTQEALAQRLGKGQSTIANKLRLLKLPQPVQEAIMEKKITERHARALIPLKQPELQVTLLTEIIEKSLNVKQTEDRVVKMLEQGQRKPKPRRKAFSRDTRIAMNTIRQSLSMVEDSGVKLNTEEEEFEEYIQLTIRIPK
